This experiment addresses sPSGL, soluble recombinant PSGL-1 consisting of the entire dimeric extracellular domain (UniProt Q14242). In words: BIAcore SPR; LE domains injected over immobilized sPSGL.

The chains behind the UniProt entries cited, without tags or fusion partners. Where a name states a change or a piece, a line headed by the entry shows the natural chain unless it says otherwise.
UniProt Q14242: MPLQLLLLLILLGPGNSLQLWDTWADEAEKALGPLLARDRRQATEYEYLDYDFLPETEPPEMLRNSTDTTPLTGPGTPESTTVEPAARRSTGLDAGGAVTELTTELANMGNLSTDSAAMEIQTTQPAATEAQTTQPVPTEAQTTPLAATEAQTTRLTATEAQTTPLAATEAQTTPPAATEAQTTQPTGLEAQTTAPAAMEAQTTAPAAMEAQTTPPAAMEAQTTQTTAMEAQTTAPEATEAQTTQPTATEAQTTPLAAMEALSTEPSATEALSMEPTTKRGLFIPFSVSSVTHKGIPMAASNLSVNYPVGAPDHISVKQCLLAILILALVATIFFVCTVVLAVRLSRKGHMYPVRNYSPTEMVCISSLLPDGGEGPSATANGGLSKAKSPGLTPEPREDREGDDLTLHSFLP

These are yes or no findings as the source states them, for the method shown. Binding calls can cover weak binding; strength is not graded here.

B1: E-selectin lectin and EGF-like (LE) domains, monomeric (receptor, UniProt P16581 22-178, looked up)
chain: WSYNTSTEAMTYDEASAYCQQRYTHLVAIQNKEEIEYLNSILSYSPSYYWIGIRKVNNVWVWVGTQKPLTEEAKNWAPGEPNNRQKDEDCVEIYIKREKDVGMWNDERCSKKKLALCYTAACTNTSCSGHGECVETINNYTCKCDPGFSGLKCEQIV
modifications: glycosylated and N-glycanase-deglycosylated forms both tested
Turning to B1, the binding result was “binds”.

The values above are taken from US20040096894A1, “Crystal structures of P- selectin, P- and E-selectin complexes, and uses thereof” (priority 2000, published 2004).
